In US10441669B2, “Multifunctional chelators, complexes, and compositions thereof, and methods of using same” (ILLINOIS INSTITUTE OF TECHNOLOGY, priority 2013, dated 2019):

How the values were obtained:
[1] = Radiolabeling efficiency of bimodal chelators with 177Lu; assay type: physicochemical; conditions: pH 5.5, RT, ITLC
[2] = Radiolabeling efficiency of bimodal chelators with 90Y; assay type: physicochemical; conditions: pH 5.5, RT, ITLC
[3] = 177Lu, pH 5.5, RT, data cited for comparison, cited from earlier work
[4] = Radiolabeling efficiency of 5p-C-NETA and 5p-C-NETA-RGD with 90Y; assay type: physicochemical; conditions: RT, 0.25M NH4OAc, pH 5.5, ITLC
[5] = Radiolabeling efficiency of 5p-C-NETA and 5p-C-NETA-RGD with 177Lu; assay type: physicochemical; conditions: RT, 0.25M NH4OAc, pH 5.5, ITLC
[6] = Radiolabeling efficiency of pyridyl-based chelators with 177Lu; assay type: physicochemical; conditions: RT
[7] = Radiolabeling of pyridyl-containing chelators with 64Cu; assay type: physicochemical; conditions: RT
[8] = Y-90 labeling efficiency (head of Table 11) of pyridyl-based chelator; assay type: physicochemical; conditions: Y-90, RT
[9] = Maximum specific activity of chelators A-F with 64Cu; assay type: physicochemical; conditions: 0.1 M NH4OAc, pH 5.5, 37° C., 1 h
[10] = Radiolabeling kinetics of chelators A-F with 64Cu; assay type: physicochemical; conditions: 0.25M NH4OAc, pH 5.5, RT, ITLC

## O=C(O)CN1CCN(CCN(CC(=O)O)CC(=O)O)CCN(CC(CCCc2ccc([N+](=O)[O-])cc2)N(CC(=O)O)CC(=O)O)CC1 (centres unmarked) [Chelator 1]
[1]; 1 min
  Radiolabeling efficiency (%): 97.4 ± 0.10%
[1]; 10 min
  Radiolabeling efficiency (%): 98.6 ± 0.10%
[1]; 20 min
  Radiolabeling efficiency (%): 99.3 ± 0.10%
[1]; 30 min
  Radiolabeling efficiency (%): 99.4 ± 0.10%
[1]; 60 min
  Radiolabeling efficiency (%): 99.5 ± 0.06%
[2]; 1 min
  Radiolabeling efficiency (%): 97.0 ± 1.0%
[2]; 10 min
  Radiolabeling efficiency (%): 99.0 ± 0.4%
[2]; 20 min
  Radiolabeling efficiency (%): 99.7 ± 0.1%
[2]; 30 min
  Radiolabeling efficiency (%): 99.7 ± 0.06%
[2]; 60 min
  Radiolabeling efficiency (%): 99.8 ± 0.2%

## O=C(O)CN1CCN(CC(=O)O)CCN(CC(CCCc2ccc([N+](=O)[O-])cc2)N(CC(=O)O)CC(=O)O)CC1 (centres unmarked) [Chelator 3p-C-NETA]
[3]; 1 min
  Radiolabeling efficiency (%): 100.0 ± 0.0%
[3]; 10 min
  Radiolabeling efficiency (%): 100.0 ± 0.0%
[3]; 20 min
  Radiolabeling efficiency (%): 100.0 ± 0.0%
[3]; 30 min
  Radiolabeling efficiency (%): 100.0 ± 0.0%
[3]; 60 min
  Radiolabeling efficiency (%): 100.0 ± 0.0%

## O=C(O)CN1CCN(CC(=O)O)CCN(CC(CCCCCc2ccc([N+](=O)[O-])cc2)N(CC(=O)O)CC(=O)O)CC1 (centres unmarked) [Chelator 5p-C-NETA, 2-({1-[4,7-bis(carboxymethyl)-1,4,7-triazonan-1-yl]-7-(4-nitrophenyl)heptan-2-yl}(carboxy-methyl)amino)acetic acid]
[4]; 1 min
  Radiolabeling efficiency (%): 99.3 ± 0.1%
[4]; 5 min
  Radiolabeling efficiency (%): 99.7 ± 0.3%
[4]; 10 min
  Radiolabeling efficiency (%): 99.8 ± 0.1%
[4]; 20 min
  Radiolabeling efficiency (%): 99.8 ± 0.1%
[4]; 30 min
  Radiolabeling efficiency (%): 99.9 ± 0.1%
[4]; 60 min
  Radiolabeling efficiency (%): 100.0 ± 0.0%
[5]; 1 min
  Radiolabeling efficiency (%): 99.6 ± 0.1%
[5]; 5 min
  Radiolabeling efficiency (%): 99.7 ± 0.3%
[5]; 10 min
  Radiolabeling efficiency (%): 99.6 ± 0.1%
[5]; 20 min
  Radiolabeling efficiency (%): 99.7 ± 0.1%
[5]; 30 min
  Radiolabeling efficiency (%): 99.8 ± 0.2%
[5]; 60 min
  Radiolabeling efficiency (%): 99.9 ± 0.1%

## NCCCNC(=O)c1ccc(CN(CCN2CCN(CC(=O)O)CCN(CC(=O)O)CC2)CC(=O)O)nc1 [Chelator 10]
[6]; pH 5.5, 1 min
  Lu-177 Labeling Efficiency (%): 15.6 ± 1.9%
[6]; pH 5.5, 10 min
  Lu-177 Labeling Efficiency (%): 76.4 ± 0.14%
[6]; pH 5.5, 30 min
  Lu-177 Labeling Efficiency (%): 97.9 ± 0.42%
[6]; pH 5.5, 60 min
  Lu-177 Labeling Efficiency (%): 99.5 ± 0.35%
[7]; pH 5.5, 1 min
  Labeling Efficiency (%): 99.8 ± 0.14%
[7]; pH 5.5, 10 min
  Labeling Efficiency (%): 100 ± 0.0%
[7]; pH 5.5, 30 min
  Labeling Efficiency (%): 99.9 ± 0.14%

## NCCCNC(=O)c1ccc(CN2CCN(CC(=O)O)CCN(CC(=O)O)CC2)nc1 [Chelator 13]
[7]; pH 5.5, 1 min
  Labeling Efficiency (%): 100 ± 0.07%
[7]; pH 5.5, 10 min
  Labeling Efficiency (%): 100 ± 0.0%
[7]; pH 5.5, 30 min
  Labeling Efficiency (%): 100 ± 0.0%
[8]; pH 5.5, 1 min
  Y-90 labeling efficiency (%): 11.3 ± 0.49%
[8]; pH 5.5, 5 min
  Y-90 labeling efficiency (%): 53.4 ± 0.21%
[8]; pH 5.5, 30 min
  Y-90 labeling efficiency (%): 82.1 ± 0.07%
[8]; pH 5.5, 60 min
  Y-90 labeling efficiency (%): 92.6 ± 0.78%

## O=C(O)CN1CCN(CC(=O)O)CCN(C(CCc2ccc([N+](=O)[O-])cc2)C(=O)O)CC1 (centres unmarked) [Chelator A, 2-[4,7-bis(carboxymethyl)-1,4,7-triazonan-1-yl]-4-(4-nitrophenyl)butanoic acid, reference compound]
[9]
  maximum specific activity: 4.87 Ci/μmol
[10]; Time (h) 1
  Bound complex (%), radiolabeling efficiency: 99.8 ± 0.1%
[10]; Time (h) 10
  Bound complex (%), radiolabeling efficiency: 99.8 ± 0.2%
[10]; Time (h) 30
  Bound complex (%), radiolabeling efficiency: 99.6 ± 0.3%

## O=C(O)CN1CCN(CCCc2ccc([N+](=O)[O-])cc2)CCN(CC(=O)O)CC1 [Chelator B, 2-[4-(carboxymethyl)-7-[3-(4-nitrophenyl)propyl]-1,4,7-triazonan-1-yl]acetic acid]
[9]
  maximum specific activity: 51.73 Ci/μmol
[10]; Time (h) 1
  Bound complex (%), radiolabeling efficiency: 99.7 ± 0.1%
[10]; Time (h) 10
  Bound complex (%), radiolabeling efficiency: 99.6 ± 0.4%
[10]; Time (h) 30
  Bound complex (%), radiolabeling efficiency: 100 ± 0.0%

## O=C(O)CN1CCN(CC(=O)O)CCN(CC(=O)CCc2ccc([N+](=O)[O-])cc2)CC1 [Chelator C, 2-[4-(carboxymethyl)-7-[4-(4-nitrophenyl)-2-oxobutyl]-1,4,7-triazonan-1-yl]acetic acid]
[9]
  maximum specific activity: 27.45 Ci/μmol
[10]; Time (h) 1
  Bound complex (%), radiolabeling efficiency: 99.3 ± 0.3%
[10]; Time (h) 10
  Bound complex (%), radiolabeling efficiency: 99.2 ± 0.9%
[10]; Time (h) 30
  Bound complex (%), radiolabeling efficiency: 99.5 ± 0.5%

## O=C(O)CN1CCN(CC(=O)O)CCN(CC(O)CCc2ccc([N+](=O)[O-])cc2)CC1 (centres unmarked) [Chelator D, 2-[4-(carboxymethyl)-7-[2-hydroxy-4-(4-nitrophenyl)butyl]-1,4,7-triazonan-1-yl]acetic acid]
[9]
  maximum specific activity: 1.18 Ci/μmol
[10]; Time (h) 1
  Bound complex (%), radiolabeling efficiency: 99.0 ± 0.0%
[10]; Time (h) 10
  Bound complex (%), radiolabeling efficiency: 99.6 ± 0.2%
[10]; Time (h) 30
  Bound complex (%), radiolabeling efficiency: 99.5 ± 0.4%

## O=C(O)CN1CCN(CC(=O)O)CCN(Cc2ccccn2)CC1 [Chelator E, 2-[4-(carboxymethyl)-7-(pyridin-2-ylmethyl)-1,4,7-triazonan-1-yl]acetic acid]
[9]
  maximum specific activity: 14.69 Ci/μmol
[10]; Time (h) 1
  Bound complex (%), radiolabeling efficiency: 99.9 ± 0.1%
[10]; Time (h) 10
  Bound complex (%), radiolabeling efficiency: 99.9 ± 0.1%
[10]; Time (h) 30
  Bound complex (%), radiolabeling efficiency: 99.9 ± 0.1%

## O=C(O)CN1CCN(CC(=O)O)CCN(Cc2cccs2)CC1 [Chelator F, 2-[4-(carboxymethyl)-7-(thiophen-2-ylmethyl)-1,4,7-triazonan-1-yl]acetic acid]
[9]
  maximum specific activity: 1.82 Ci/μmol
[10]; Time (h) 1
  Bound complex (%), radiolabeling efficiency: 99.8 ± 0.2%
[10]; Time (h) 10
  Bound complex (%), radiolabeling efficiency: 99.9 ± 0.2%
[10]; Time (h) 30
  Bound complex (%), radiolabeling efficiency: 99.8 ± 0.2%

Read-outs that look alike come from different tables or passages of the source.
